Reference: the supplement of paper PMC10849652
This is one part of the list.

Amino acid sequences for entries named in this document (tags omitted). A change or cut given only in a name is not applied to a line headed by its entry.
UniProt P52789: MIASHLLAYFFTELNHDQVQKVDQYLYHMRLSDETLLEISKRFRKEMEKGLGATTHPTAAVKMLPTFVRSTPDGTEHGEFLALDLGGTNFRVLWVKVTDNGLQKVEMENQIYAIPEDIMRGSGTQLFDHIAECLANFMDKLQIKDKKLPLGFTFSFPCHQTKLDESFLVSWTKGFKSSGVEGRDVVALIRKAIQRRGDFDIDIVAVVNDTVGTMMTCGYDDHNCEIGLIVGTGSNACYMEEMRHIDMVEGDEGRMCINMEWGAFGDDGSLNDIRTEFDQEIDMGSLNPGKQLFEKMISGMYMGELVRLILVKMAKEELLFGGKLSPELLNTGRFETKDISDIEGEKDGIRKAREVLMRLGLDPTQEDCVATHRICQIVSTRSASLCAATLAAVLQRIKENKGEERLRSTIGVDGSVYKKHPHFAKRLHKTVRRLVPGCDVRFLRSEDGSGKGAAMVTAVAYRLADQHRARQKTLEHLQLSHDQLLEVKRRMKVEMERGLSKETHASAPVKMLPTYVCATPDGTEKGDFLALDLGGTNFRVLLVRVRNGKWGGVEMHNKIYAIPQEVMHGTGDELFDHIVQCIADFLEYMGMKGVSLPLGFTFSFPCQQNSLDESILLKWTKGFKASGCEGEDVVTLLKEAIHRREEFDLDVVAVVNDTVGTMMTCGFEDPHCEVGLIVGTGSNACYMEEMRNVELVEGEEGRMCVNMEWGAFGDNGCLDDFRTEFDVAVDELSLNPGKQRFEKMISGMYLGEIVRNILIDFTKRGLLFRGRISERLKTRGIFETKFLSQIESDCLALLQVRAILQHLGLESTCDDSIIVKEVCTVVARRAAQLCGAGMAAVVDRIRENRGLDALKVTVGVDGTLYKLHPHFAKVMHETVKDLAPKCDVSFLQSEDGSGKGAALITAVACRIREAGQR
UniProt Q9UMF0: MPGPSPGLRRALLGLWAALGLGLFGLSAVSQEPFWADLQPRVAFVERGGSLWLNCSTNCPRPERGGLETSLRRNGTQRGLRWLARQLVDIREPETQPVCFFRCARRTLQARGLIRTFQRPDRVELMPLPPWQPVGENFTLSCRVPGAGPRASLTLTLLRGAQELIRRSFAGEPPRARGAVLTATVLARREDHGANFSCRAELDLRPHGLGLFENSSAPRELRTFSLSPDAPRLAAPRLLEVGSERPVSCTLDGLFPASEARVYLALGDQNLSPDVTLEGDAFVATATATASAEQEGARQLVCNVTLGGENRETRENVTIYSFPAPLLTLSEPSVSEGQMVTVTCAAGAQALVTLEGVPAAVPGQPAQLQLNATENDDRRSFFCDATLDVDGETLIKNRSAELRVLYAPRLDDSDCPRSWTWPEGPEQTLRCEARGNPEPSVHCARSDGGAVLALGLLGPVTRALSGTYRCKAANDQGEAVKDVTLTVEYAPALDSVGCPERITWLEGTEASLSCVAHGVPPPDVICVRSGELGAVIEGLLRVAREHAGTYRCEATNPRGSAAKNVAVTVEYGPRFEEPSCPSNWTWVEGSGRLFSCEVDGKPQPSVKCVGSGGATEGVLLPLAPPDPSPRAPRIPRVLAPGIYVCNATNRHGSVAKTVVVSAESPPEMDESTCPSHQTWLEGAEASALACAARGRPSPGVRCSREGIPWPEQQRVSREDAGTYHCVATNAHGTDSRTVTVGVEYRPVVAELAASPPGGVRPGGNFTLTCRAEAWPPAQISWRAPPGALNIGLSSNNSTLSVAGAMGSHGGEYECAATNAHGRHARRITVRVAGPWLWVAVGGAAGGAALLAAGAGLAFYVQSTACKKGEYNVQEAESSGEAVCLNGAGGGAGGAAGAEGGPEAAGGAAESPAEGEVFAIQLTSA
UniProt Q9BW71: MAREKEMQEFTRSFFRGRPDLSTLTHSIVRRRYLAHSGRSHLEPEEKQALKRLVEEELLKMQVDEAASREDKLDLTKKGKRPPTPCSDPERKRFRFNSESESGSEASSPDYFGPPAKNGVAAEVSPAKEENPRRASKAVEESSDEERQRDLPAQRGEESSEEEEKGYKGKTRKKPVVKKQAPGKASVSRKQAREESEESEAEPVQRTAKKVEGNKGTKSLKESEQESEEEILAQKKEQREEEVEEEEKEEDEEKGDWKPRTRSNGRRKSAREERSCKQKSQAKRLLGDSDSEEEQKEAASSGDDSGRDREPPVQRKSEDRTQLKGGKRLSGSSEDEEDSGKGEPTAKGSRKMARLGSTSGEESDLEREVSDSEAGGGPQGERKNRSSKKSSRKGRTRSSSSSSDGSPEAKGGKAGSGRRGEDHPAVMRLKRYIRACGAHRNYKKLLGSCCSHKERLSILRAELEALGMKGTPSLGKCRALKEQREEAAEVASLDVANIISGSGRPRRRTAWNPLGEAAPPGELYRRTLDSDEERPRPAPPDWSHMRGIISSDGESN
UniProt Q9BTY7: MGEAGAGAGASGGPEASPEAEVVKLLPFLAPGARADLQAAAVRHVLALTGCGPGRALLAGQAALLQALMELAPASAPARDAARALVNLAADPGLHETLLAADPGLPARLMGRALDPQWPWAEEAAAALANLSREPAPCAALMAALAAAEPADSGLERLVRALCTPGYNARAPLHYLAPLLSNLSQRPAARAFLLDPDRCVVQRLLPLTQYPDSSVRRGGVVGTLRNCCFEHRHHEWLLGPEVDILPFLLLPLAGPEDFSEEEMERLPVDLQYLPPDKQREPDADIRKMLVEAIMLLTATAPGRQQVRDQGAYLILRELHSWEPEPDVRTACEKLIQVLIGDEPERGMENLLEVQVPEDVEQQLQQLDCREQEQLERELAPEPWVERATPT
UniProt P49773: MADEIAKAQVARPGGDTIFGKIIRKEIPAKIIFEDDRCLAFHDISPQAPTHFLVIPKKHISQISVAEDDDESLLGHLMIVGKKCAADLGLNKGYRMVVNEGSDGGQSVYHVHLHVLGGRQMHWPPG
UniProt O14964, whole entry, looked up: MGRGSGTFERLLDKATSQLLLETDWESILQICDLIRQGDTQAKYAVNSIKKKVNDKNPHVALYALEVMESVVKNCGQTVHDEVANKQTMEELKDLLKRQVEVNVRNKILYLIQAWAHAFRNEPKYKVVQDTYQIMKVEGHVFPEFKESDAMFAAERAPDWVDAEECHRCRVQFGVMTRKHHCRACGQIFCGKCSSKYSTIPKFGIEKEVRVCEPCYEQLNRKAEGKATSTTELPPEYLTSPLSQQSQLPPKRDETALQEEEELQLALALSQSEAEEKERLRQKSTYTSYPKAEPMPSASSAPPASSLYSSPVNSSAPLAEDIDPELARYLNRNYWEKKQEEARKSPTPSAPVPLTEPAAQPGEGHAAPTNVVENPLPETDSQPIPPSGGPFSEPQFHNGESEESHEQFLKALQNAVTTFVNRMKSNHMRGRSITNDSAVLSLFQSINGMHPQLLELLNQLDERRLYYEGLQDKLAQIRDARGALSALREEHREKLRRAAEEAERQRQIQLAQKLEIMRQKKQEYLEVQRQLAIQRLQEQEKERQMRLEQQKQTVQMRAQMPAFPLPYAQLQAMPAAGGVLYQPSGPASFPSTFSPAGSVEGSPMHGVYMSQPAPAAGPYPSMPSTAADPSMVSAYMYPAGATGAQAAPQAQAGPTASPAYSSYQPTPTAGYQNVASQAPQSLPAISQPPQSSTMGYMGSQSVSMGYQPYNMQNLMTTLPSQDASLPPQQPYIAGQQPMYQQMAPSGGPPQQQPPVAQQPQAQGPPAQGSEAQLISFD
UniProt P41252: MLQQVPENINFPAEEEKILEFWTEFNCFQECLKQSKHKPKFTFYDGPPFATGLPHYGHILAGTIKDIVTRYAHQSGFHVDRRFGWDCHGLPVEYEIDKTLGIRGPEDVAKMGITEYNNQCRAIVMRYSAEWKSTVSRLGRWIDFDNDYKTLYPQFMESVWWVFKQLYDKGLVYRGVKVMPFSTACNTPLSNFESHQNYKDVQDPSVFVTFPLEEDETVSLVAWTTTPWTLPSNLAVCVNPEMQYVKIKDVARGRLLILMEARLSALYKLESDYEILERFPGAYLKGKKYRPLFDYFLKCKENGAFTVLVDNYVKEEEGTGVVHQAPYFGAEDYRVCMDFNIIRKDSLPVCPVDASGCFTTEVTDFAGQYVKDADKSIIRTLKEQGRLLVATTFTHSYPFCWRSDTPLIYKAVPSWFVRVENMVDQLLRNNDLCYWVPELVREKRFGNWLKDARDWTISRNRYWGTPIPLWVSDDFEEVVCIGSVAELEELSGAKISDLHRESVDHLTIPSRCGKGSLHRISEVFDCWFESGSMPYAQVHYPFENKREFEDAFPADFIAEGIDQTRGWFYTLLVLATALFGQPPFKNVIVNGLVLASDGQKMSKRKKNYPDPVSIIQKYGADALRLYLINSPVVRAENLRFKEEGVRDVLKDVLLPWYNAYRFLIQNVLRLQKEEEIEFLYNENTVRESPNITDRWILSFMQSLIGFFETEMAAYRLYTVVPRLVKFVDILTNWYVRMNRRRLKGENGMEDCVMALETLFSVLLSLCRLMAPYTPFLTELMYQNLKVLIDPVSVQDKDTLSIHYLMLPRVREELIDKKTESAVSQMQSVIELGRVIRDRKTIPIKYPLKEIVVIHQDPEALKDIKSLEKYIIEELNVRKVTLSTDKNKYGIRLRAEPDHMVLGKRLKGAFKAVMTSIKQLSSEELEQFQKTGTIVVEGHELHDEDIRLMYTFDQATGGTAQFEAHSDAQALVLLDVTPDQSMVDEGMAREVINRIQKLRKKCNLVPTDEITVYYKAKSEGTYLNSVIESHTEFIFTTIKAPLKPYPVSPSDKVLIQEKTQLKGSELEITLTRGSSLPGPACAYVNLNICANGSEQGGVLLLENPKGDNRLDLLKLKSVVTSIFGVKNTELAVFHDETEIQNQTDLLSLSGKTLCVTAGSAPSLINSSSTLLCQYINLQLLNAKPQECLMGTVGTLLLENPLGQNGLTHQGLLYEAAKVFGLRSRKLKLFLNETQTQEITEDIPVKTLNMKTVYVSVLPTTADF
UniProt P14866: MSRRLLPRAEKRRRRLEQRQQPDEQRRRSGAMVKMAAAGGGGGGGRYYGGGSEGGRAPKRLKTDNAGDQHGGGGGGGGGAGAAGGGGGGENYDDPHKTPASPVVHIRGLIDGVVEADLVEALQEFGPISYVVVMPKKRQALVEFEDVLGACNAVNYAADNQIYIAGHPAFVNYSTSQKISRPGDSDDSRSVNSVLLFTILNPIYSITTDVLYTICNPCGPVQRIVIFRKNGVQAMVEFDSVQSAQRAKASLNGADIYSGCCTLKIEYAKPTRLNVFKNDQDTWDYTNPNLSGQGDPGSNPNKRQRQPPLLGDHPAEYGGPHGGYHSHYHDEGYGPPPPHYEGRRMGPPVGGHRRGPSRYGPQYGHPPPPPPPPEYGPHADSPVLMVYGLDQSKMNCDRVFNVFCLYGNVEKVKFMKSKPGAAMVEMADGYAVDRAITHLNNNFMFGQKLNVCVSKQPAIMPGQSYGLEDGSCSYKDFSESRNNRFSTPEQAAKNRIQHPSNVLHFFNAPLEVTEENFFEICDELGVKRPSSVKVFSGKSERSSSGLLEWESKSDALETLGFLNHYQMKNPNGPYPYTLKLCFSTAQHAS
UniProt P82970: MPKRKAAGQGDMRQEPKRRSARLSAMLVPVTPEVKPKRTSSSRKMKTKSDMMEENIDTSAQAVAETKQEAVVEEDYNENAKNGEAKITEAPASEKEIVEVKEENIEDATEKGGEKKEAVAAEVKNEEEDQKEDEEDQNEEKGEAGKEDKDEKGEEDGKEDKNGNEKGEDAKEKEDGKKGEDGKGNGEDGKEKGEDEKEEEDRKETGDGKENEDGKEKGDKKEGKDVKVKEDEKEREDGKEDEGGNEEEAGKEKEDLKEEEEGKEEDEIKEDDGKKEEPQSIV
UniProt P09429: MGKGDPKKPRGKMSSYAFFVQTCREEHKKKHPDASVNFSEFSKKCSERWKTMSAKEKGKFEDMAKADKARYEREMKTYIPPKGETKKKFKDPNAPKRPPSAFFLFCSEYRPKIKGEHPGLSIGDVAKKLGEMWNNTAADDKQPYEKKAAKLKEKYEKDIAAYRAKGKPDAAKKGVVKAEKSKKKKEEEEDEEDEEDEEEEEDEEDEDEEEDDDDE
UniProt Q58FF6, whole entry, looked up: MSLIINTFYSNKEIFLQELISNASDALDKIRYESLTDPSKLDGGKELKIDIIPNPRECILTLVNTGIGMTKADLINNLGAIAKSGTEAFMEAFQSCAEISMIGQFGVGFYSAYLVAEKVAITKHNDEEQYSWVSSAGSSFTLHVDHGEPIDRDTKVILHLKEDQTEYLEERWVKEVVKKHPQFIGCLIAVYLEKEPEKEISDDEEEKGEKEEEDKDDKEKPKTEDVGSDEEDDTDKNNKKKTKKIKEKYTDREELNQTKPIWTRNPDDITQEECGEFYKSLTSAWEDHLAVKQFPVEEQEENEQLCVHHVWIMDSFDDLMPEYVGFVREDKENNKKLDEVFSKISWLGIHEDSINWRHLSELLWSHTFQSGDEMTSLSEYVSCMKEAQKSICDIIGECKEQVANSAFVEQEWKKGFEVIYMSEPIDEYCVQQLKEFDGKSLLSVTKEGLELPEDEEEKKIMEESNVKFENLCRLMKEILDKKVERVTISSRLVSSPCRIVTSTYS

compound: c1cn2cc(-c3ccc4cn[nH]c4c3)nc(Nc3ccc(N4CCOCC4)cc3)c2n1 [entospletinib]; test: log2 fold change, soluble protein after heating vs DMSO (PISA); higher = thermal stabilisation; K562 cells, 10 uM, 30 min; active = over 0.2 and 3.5 SD of the protein, either way, in both replicates (recomputed)
Method in brief: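 K562 cells (2×10^6 cells/mL) were treated with 10 μM compound for 30 min, and aliquots were heated for 3 min over 48°C-58°C. Pooled aliquots were extracted in PBS with 0.5% NP-40 at 4°C, and the supernatant after 21,000xg for 90 min was measured by TMTpro 16plex LC-MS/MS with channel sums equalised. Reported thermal stability, relative to control samples and from duplicates, is a log2 fold change.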

log2 fold change, active:
HK2 (UniProt P52789) -0.54

log2 fold change, inactive:
HSP90AB1 (UniProt P08238) 0.013
ICAM5 (UniProt Q9UMF0) -0.048
HYOU1, A0A494C039 0.016
HNRNPA1 (UniProt H0YH80) 0.208
HSPA4L (UniProt O95757) -0.011
HIRIP3 (UniProt Q9BW71) -0.029
HMCN1 (UniProt Q96RW7) 0.136
HGH1 (UniProt Q9BTY7) 0.16
HOXD9 (UniProt P28356) -0.189
HINT1 (UniProt P49773) 0.065
HOMER2 (UniProt Q9NSB8) 0.012
HGS (UniProt O14964) -0.002
HMGCS1 (UniProt Q01581) -0.029
HSPA13 (UniProt P48723) 0.031
IBA57 (UniProt Q5T440) 0.005
HNRNPAB isoform 3 (UniProt Q99729) 0.07
IARS (UniProt P41252) 0.15
HS2ST1 (UniProt Q7LGA3) 0.03
HIST2H2BC (UniProt Q6DN03) 0.131
HSPA5 (UniProt P11021) 0.012
HMCES (UniProt Q96FZ2) -0.031
HIST2H2AA3 (UniProt Q6FI13) -0.024
HYOU1 (UniProt Q9Y4L1) -0.02
HTD2 (UniProt P86397) -0.163
HNRNPA2B1 (UniProt P22626) 0.119
HNRNPL (UniProt P14866) 0.183
HMGN5 (UniProt P82970) -0.015
HMGB1 (UniProt P09429) -0.004
HNRNPD isoform 4 (UniProt Q14103) 0.181
HSPA4 (UniProt P34932) -0.026
HSPBP1 isoform 3 (UniProt Q9NZL4) 0.003
HSP90AB4P (UniProt Q58FF6) -0.237
HSDL1 (UniProt Q3SXM5) 0.015
HMGN4 (UniProt O00479) -0.068

Nothing new here: entries from further up.
log2 fold change, inactive:
HMGCS1 (UniProt Q01581) -0.029
HSPA13 (UniProt P48723) 0.031
IBA57 (UniProt Q5T440) 0.005
HNRNPAB isoform 3 (UniProt Q99729) 0.07
IARS (UniProt P41252) 0.15
HS2ST1 (UniProt Q7LGA3) 0.03
HIST2H2BC (UniProt Q6DN03) 0.131
HSPA5 (UniProt P11021) 0.012
